Measurements taken from publication PMC12822425.
Results are given in words; binding and its absence hold for the method and conditions named. A result given as binding can be weak or reduced; the word gives no strength.

Sequences of proteins named here, by UniProt entry; tags and fusion partners are left off. A change or cut given only in a name is not applied to a line headed by its entry.
UniProt Q9UPY5: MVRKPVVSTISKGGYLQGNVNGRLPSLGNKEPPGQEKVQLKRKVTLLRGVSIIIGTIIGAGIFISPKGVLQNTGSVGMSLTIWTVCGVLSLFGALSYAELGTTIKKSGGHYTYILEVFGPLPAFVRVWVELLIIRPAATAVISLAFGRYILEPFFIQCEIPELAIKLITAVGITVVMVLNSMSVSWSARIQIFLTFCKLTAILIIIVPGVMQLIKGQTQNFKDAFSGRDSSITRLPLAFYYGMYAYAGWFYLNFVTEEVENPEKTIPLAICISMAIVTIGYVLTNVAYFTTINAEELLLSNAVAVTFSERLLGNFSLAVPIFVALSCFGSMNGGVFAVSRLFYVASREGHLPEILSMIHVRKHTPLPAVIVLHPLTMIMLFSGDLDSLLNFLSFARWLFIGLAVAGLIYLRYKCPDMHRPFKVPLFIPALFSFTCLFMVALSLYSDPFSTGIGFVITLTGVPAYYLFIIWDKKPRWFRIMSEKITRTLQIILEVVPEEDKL

Target: recombinant SLC7A11 protein (human) (UniProt Q9UPY5)
Assay: SPR; competition: SLC7A11 coupled on the chip; binding of TRIM3 to SLC7A11 at varying concentrations of CypA; both purified

B1: TRIM3 protein (SPR) (enzyme, UniProt O75382 1-744)
chain: MAKREDSPGPEVQPMDKQFLVCSICLDRYQCPKVLPCLHTFCERCLQNYIPAQSLTLSCPVCRQTSILPEQGVSALQNNFFISSLMEAMQQAPDGAHDPEDPHPLSVVAGRPLSCPNHEGKTMEFYCEACETAMCGECRAGEHREHGTVLLRDVVEQHKAALQRQLEAVRGRLPQLSAAIALVGGISQQLQERKAEALAQISAAFEDLEQALQQRKQALVSDLETICGAKQKVLQSQLDTLRQGQEHIGSSCSFAEQALRLGSAPEVLLVRKHMRERLAALAAQAFPERPHENAQLELVLEVDGLRRSVLNLGALLTTSATAHETVATGEGLRQALVGQPASLTVTTKDKDGRLVRTGSAELRAEITGPDGTRLPVPVVDHKNGTYELVYTARTEGELLLSVLLYGQPVRGSPFRVRALRPGDLPPSPDDVKRRVKSPGGPGSHVRQKAVRRPSSMYSTGGKRKDNPIEDELVFRVGSRGREKGEFTNLQGVSAASSGRIVVADSNNQCIQVFSNEGQFKFRFGVRGRSPGQLQRPTGVAVDTNGDIIVADYDNRWVSIFSPEGKFKTKIGAGRLMGPKGVAVDRNGHIIVVDNKSCCVFTFQPNGKLVGRFGGRGATDRHFAGPHFVAVNNKNEIVVTDFHNHSVKVYSADGEFLFKFGSHGEGNGQFNAPTGVAVDSNGNIIVADWGNSRIQVFDSSGSFLSYINTSAEPLYGPQGLALTSDGHVVVADAGNHCFKAYRYLQ
B1 was tested, and the binding was “binds”.
